In PubChem BioAssay AID493014 (National Center for Advancing Translational Sciences (NCATS), 2011) one finds AC50 data, which are given here for 63 molecules.

This test can be described thus: qHTS Assay to Find Inhibitors of Chronic Active B-Cell Receptor Signaling. The conditions noted are these: ABC-DLBCL IkBa-CBG/CBR reporter, luminescence ratio (green luciferase fused to IkBa over red control in TMD8 lymphoma cells), 4 h. The procedure, abridged: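 Compounds up to 46 uM were incubated four hours with TMD8 cells whose green CBG68 luciferase is fused to IkappaBalpha; red CBR luminescence normalised the signal, and concentration-effect curves were fitted to fusion, red and ratio data.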

Setting [1] is: measured here: CBR red luminescence, cell number.
Setting [2] is: measured here: IkBa-CBG green luminescence.

What is called AC50 is the concentration giving half of the maximal activity seen.

Some of the results follow. Shown are side measurements of this screen, not its main read-out; they come without a call. Compounds called inactive in the main read-out are mostly missing here. Potencies come from curve fits of mixed quality, noted in brackets.

On to `O=C(Nc1ccc2c(c1)OCO2)C(=O)c1c[nH]c2ccccc12`, for which the AC50 under setting [1] was 3.98 µM [falling, full curve].

For the molecule `Cc1ccc(S(=O)(=O)Cc2cccc(C(=O)N3CCOCC3)c2)cc1`, the AC50 under setting [1] is 0.92 µM [falling, full curve, poor fit].

On to `Cc1cccc(NS(=O)(=O)c2cc(C(=O)N3CCOCC3)ccc2Cl)c1`, for which the AC50 under setting [1] is 0.112 µM [rising, full curve, poor fit].

Take `Cc1cc(CC(C)C)n(-c2nc3ccccc3c(=O)n2OCc2ccccc2)n1`: the AC50 under setting [1] is 6.31 µM [rising, single point].

As for `CC(=O)CC1OC(=O)C(Br)=C1NCc1ccccc1` (stereo not drawn), the AC50 under setting [1] was 28.2 µM [falling, single point].

`Cc1cccnc1Nc1nc(-c2ccc(O)cc2)cs1`: under setting [1], the AC50 is 16.4 µM [falling, partial curve, poor fit].

With `O=C(C1COc2ccccc2O1)N1CCN(c2ccccc2)CC1` (stereo not drawn), the AC50 under setting [1] was 6.31 µM [rising, partial curve, poor fit].

As to `CCC(CC)C(=O)Nc1cccc(C(=O)NCCc2ccccc2)c1`, the AC50 under setting [1] is 14.1 µM [falling, single point].

Consider `O=C(Nc1ccc(N2CCOCC2)nc1)c1ccc(F)cc1`, for which, under setting [1], the AC50 is 16.4 µM [falling, partial curve].

On to `O=C(COC(=O)c1cncc(Br)c1)NCc1cccs1`, for which the AC50 under setting [1] was 2.31 µM [rising, partial curve, poor fit].

In the case of `CC1CC(C)CN(c2ncnc3c2cnn3-c2ccc(Cl)cc2)C1` (stereo not drawn), the AC50 under setting [1] was 9.2 µM [rising, partial curve, poor fit].

For the molecule `CC(C)C(=O)Nc1cc(S(=O)(=O)Nc2cccc(Cl)c2)ccc1Cl`, under setting [1], the AC50 is 14.6 µM [falling, partial curve].

Consider `O=C(NCCCN1CCOCC1)c1cc(-c2ccc(Cl)cc2)on1`, for which, under setting [1], the AC50 was 2.91 µM [falling, full curve, poor fit].

In the case of `CCOC(=O)C(C)Sc1nc2c(c(=O)[nH]c(=O)n2C)n1Cc1ccc(Cl)cc1` (stereo not drawn), under setting [1], the AC50 was 3.66 µM [rising, single point].

On to `C=CCc1cccc2cc(C(=O)OCC)c(=O)oc12`, for which the AC50 under setting [1] was 18.4 µM [rising, single point].

With `COc1ccc2c(c1OC)C(=O)N1C2SC[C@H]1C(=O)NC1CCCC1` (stereo partly drawn), the half-maximal activity concentration (AC50) under setting [1] was 1.26 µM [rising, full curve].

`CC1CCc2nc(NC(=O)C3CCCO3)sc2C1` (stereo not drawn): the AC50 under setting [1] is 14.6 µM [falling, single point].

In the case of `OCC#Cc1ncc(C(F)(F)F)cc1Cl`, the AC50 is, setting by setting: under setting [1], 10 µM [falling, partial curve, poor fit]; under setting [2], 14.1 µM [rising, single point].

Take `CN1C(=O)C2C=CC1C1C(=O)N(c3ccccc3)C(=O)C21` (stereo not drawn): the AC50 under setting [1] is 0.112 µM [falling, full curve, poor fit].

In the case of `COc1ccc(NC(=O)CN2C(=O)c3ccccc3Sc3ccc(C(=O)N4CCOCC4)cc32)c(OC)c1`, the AC50 under setting [1] was 3.98 µM [falling, single point].

On to `CC(C(=O)NC(C)(C)C)N(C(=O)CS(=O)CC(=O)Nc1ccc(F)cc1)c1ccccc1F` (stereo not drawn), for which the AC50 under setting [1] was 7.08 µM [rising, full curve, poor fit].

As for `CC(=O)Nc1cc(C(=O)N2CCCC2)ccc1Sc1ccc(Cl)cc1`, under setting [1], the AC50 is 32.6 µM [falling, single point].

In the case of `Nn1c(SCC(=O)Nc2cccc(C(F)(F)F)c2)nncc1=O`, the AC50 under setting [1] is 3.98 µM [falling, partial curve, poor fit].

On to `Oc1ccccc1C1N=C(c2ccccc2)NC(c2ccccc2)=N1`, for which, under setting [1], the AC50 was 29.1 µM [falling, single point].

Regarding `CCN1C(=O)C(=O)N(CC(=O)Nc2ccccc2OC(F)F)C1=O`, the AC50 under setting [1] is 0.731 µM [falling, partial curve, poor fit].

As for `CC(C)CC(=O)NC(=S)Nc1ccccn1`, under setting [2], the AC50 was 29.1 µM [falling, single point].

For `Cc1ccc2c(c1C)NC(C(=O)O)C1CC=CC21` (stereo not drawn), the AC50 under setting [1] was 7.31 µM [falling, partial curve, poor fit].

Turning to `CCNc1nc(NC(C)(C)C)nc(N2CCCC2)n1`, under setting [1], the AC50 was 14.6 µM [rising, partial curve].

`CC(C)[C@H](NC(=O)c1ccc(Cl)cc1Cl)C(=O)NNc1cccc(C(=O)O)c1`: the AC50 under setting [1] is 18.4 µM [falling, single point].

Consider `CCOC(=O)C1CCN(S(=O)(=O)c2c(Cl)ccc3nonc23)CC1`, for which the AC50 reads like this: under setting [1], 2.51 µM [rising, partial curve, poor fit]; under setting [2], 3.16 µM [falling, partial curve].

Regarding `CCCCN=C1NC(=O)C(CC(=O)NCCc2ccc(OC)cc2)S1` (stereo not drawn), under setting [2], the AC50 was 29.1 µM [rising, partial curve, poor fit].

In the case of `O=C(c1cc2cc(Br)ccc2s1)N1CCOCC1`, the AC50 under setting [1] was 12.6 µM [rising, single point].

As to `COc1ccc(CNc2nc3nc(C)c(Cl)c(=O)n3[nH]2)cc1`, under setting [1], the half-maximal activity concentration (AC50) was 35.5 µM [falling, single point].

With `NC(=O)C(C(=O)/C=C/c1ccc(Cl)cc1)=C1SCCS1`, under setting [1], the AC50 was 11.2 µM [falling, single point].

Take `CCC(=O)N1CCN(c2ccc(Cl)cc2NC(=O)Cc2ccc(Cl)cc2)CC1`: the AC50 under setting [1] is 29.1 µM [falling, single point] and the AC50 under setting [2] was 25.9 µM [rising, partial curve, poor fit].

As for `c1cc2c(cc1C1CCCCC1)c1c3n2CCN=C3CCC1`, the AC50 under setting [1] is 25.9 µM [rising, single point].

With `Cc1cc(NC(=O)COC(=O)c2ccc(S(=O)(=O)N3CCCc4ccccc43)cc2)no1`, the AC50 was 12.6 µM [rising, partial curve] under setting [1] and 20 µM [falling, single point] under setting [2].

On to `O=C(NCCCn1ccnc1)C1CCN(S(=O)(=O)c2cc([N+](=O)[O-])ccc2Cl)CC1`, for which the AC50 under setting [1] is 6.51 µM [rising, full curve, poor fit].

Consider `COC(=O)c1c(NC(=O)c2cnccn2)sc2c1CCC2`, for which the AC50 under setting [1] is 2.91 µM [rising, full curve].

`Cc1onc(-c2c(Cl)cccc2Cl)c1-c1nc2cc(Cl)ccc2c(=O)o1`: the AC50 under setting [1] was 0.251 µM [falling, full curve, poor fit].

Turning to `CC(C)=CCCC(C)CN1CCC(n2nccc2NC(=O)c2ccc3c(c2)OCO3)CC1` (stereo not drawn), the concentration at half-maximal activity (AC50) under setting [1] is 0.562 µM [falling, full curve].

Turning to `COc1cccc2c1C(=O)O/C2=C/c1ccc2c(c1)OCO2`, the AC50 under setting [1] was 0.326 µM [rising, full curve, poor fit].

For the molecule `COc1cc(/C=N/OCC(=O)Nc2cc(C)on2)ccc1OCc1ccccc1`, under setting [1], the AC50 is 1.16 µM [rising, partial curve, poor fit].

Consider `Cc1ccc(NC(=S)N/N=C/c2ccc([N+](=O)[O-])s2)cc1`, for which the AC50 under setting [1] was 6.51 µM [rising, partial curve, poor fit].

Turning to `Cn1c(C(=O)N2CCc3ccccc3C2)cc2oc3ccccc3c21`, the AC50 under setting [1] is 0.82 µM [rising, partial curve, poor fit].

`O=C1N[C@H]2CC=C[C@H]2Nc2ccccc21`: the AC50 under setting [1] is 29.1 µM [rising, single point] and the AC50 under setting [2] is 18.4 µM [falling, partial curve].

Turning to `O=C(O)C1CCN(C(=O)CSc2nc3ccccc3c(=O)n2-c2ccc(Cl)cc2)CC1`, the AC50 under setting [1] is 35.5 µM [falling, single point].

As to `Cc1ccc(CNC(=O)C(N=C2NS(=O)(=O)c3ccccc32)C(C)C)cc1` (stereo not drawn), the AC50 under setting [1] was 32.6 µM [falling, single point].

As for `COCCn1nnnc1C(c1cccs1)N1CCN(c2cc(C)ccc2C)CC1` (stereo not drawn), under setting [1], the AC50 was 18.4 µM [falling, single point].

Consider `CCc1nc(SCc2ccc([N+](=O)[O-])cc2)n[nH]1`, for which the AC50 under setting [1] is 9.2 µM [rising, partial curve, poor fit].

Regarding `COc1ccc(N2CCN(CCCNC(=O)c3cc(Nc4ccccc4OC)nc4ccccc34)CC2)cc1`, the AC50 under setting [2] was 35.5 µM [rising, partial curve, poor fit].

`c1ccc(CCNc2nc3ccccc3n3nnnc23)cc1`: under setting [1], the AC50 was 6.51 µM [falling, partial curve].

For `Oc1ccc(-c2cnc(-c3ccc(O)cc3)nc2)cc1`, the AC50 under setting [1] is 14.1 µM [falling, partial curve].

`COc1ccc2cc3c(N)nn(C(=O)c4ccc(Cl)c([N+](=O)[O-])c4)c3nc2c1`: the AC50 under setting [1] was 0.651 µM [falling, full curve].

Turning to `CN(CC1COc2ccccc2O1)C(=O)c1cc(COc2c(F)cccc2F)on1` (stereo not drawn), the AC50 under setting [1] is 5.62 µM [rising, single point].

Consider `CSc1nc2nc3c(cc2c(=O)n1-c1ccc(C)cc1)COC(C)(C)C3`, for which the AC50 under setting [1] was 35.5 µM [rising, partial curve, poor fit].

On to `CC1CCN(CCCNC(=O)c2ccc3c(Cl)c4c(nc3c2)CCCC4)CC1`, for which the AC50 under setting [1] was 10 µM [falling, single point].

As for `c1cnn(Cc2cnc(N3CCOCC3)s2)c1`, the AC50 under setting [1] was 20 µM [rising, single point].

On to `O=C(Nc1nnc(Cc2ccccc2)s1)C1CCC1`, for which, under setting [1], the AC50 is 1.12 µM [rising, full curve, poor fit].

Take `Cc1ccc(C2=Nc3ccccc3NC(C)(c3ccc(C)o3)C2)o1` (stereo not drawn): the AC50 under setting [1] was 29.1 µM [falling, single point].

Regarding `CC1(C(=O)N2CC3(CC(c4cccc(NC(=O)COc5ccc(Cl)cc5)c4)=NO3)C[C@@H]2C(N)=O)CC1` (stereo partly drawn), under setting [1], the AC50 is 11.2 µM [falling, partial curve].

In the case of `Cc1ccc(C)c(N2N=C(C(=O)NCCN3C(=O)S/C(=C\c4cccnc4)C3=O)CCC2=O)c1`, under setting [1], the AC50 is 5.17 µM [falling, partial curve].

As for `COc1ccc(NC(=O)CN2CCCC2c2cccs2)cc1S(=O)(=O)N1CCCCC1` (stereo not drawn), the AC50 under setting [1] is 6.51 µM [rising, single point].
